This test can be described thus: qHTS Assay for Lipid Storage Modulators in Drosophila S3 Cells.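 For cell number change: cells counted by Cell Tracker Red CMTPX staining in the red channel.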 The following applies: BODIPY lipid droplet fluorescence, 18-24 h; for cell number change: measured here: cell count max response, cells fed with added oleic acid. The method in brief:
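Drosophila S3 cells loaded with oleic acid (400 uM, as added) and compounds at several concentrations; lipid droplets imaged by 488-nm laser-scanning cytometry, 500–530 nm intensity and object ratio to cell channel. Percent activity normalized to 20 uM Triacsin C.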
In general terms: qHTS replaces the single test concentration by a dilution series.

Setting [1] is: measured here: lipid fluorescence (Fed channel) AC50, cells fed with added oleic acid.
[2] abbreviates: measured here: cell number channel AC50, cells fed with added oleic acid.

Some of the results follow. These are further read-outs of the screen, such as a control signal, another cell line or another target. No call is given for them. The list favours compounds with an active or inconclusive main result. The note in brackets gives the kind of curve behind each potency; many fits are weak.

The AC50 is the midpoint of the concentration-response curve, whichever way the signal moves. A lower AC50 goes with greater potency. With `Oc1ccc2ccccc2c1CNn1cnnc1`, the cell number change was -5.6%. In addition, under setting [1], the AC50 was 29.1 µM [rising, partial curve, poor fit]. In the case of `O=c1[nH]c2ccc(NS(=O)(=O)c3ccc([N+](=O)[O-])cc3)cc2[nH]1`, the cell number change is -22.2%. Further, the concentration at half-maximal activity (AC50) under setting [1] was 29.1 µM [falling, single point]. Take `COCCCNC(=O)C1CCN(C(=O)c2oc3cc4sc(N(C)C)nc4cc3c2C)CC1`: the cell number change was -68.2%. Under setting [2], the AC50 was 14.6 µM [falling, single point].

Take `CC(=O)OCC1OC(OCc2cn(C[C@H]3CC[C@H](Cn4cc(COC5OC(COC(C)=O)C(OC(C)=O)C(OC(C)=O)C5OC(C)=O)nn4)O3)nn2)C(OC(C)=O)C(OC(C)=O)C1OC(C)=O` (stereo partly specified): the cell number change is 14.9%. As for `CC(O/N=C/c1ccc(OC(F)F)cc1)C(=O)Nc1cccc(S(=O)(=O)N2CCOCC2)c1` (stereo unspecified), the cell number change came out at 15.3%. Same read-out and setting: then `Cc1cccc(NC(=O)c2ccc(N3CCOCC3)c([N+](=O)[O-])c2)n1`, with 42.2%. For the compound `Cc1ccc(C)c(OC(=O)c2cncc(Br)c2)c1`, the cell number change turned out to be 7.8%. Moreover, the concentration at half-maximal activity (AC50) under setting [1] is 0.0731 µM [rising, full curve, poor fit]. Regarding `O=C(O)CCn1cc(C(=O)O)c(-c2ccccc2)n1`, the cell number change was -2.13%. For the same compound, under setting [1], the AC50 is 0.116 µM [falling, partial curve, poor fit]. As for `CC(C)(CNC(=O)CCNC(=O)c1ccc(Br)cc1)N1CCOCC1`, the cell number change was 10.4%. The same measure, in the same setting: then `COc1ccc(CCNC(=O)c2nn(C)c3c2CS(=O)(=O)c2ccccc2-3)c(OC)c1`, with 10.7%; and `Cc1c(Cl)cccc1NC(=S)N(C)CCC#N`, with 43.6%. Regarding `COc1ccc(C(=O)N2CC3(CC(c4cccc(NC(=O)COc5ccc(Cl)cc5)c4)=NO3)C[C@@H]2C(N)=O)cc1` (stereo partly specified), the cell number change is -32.5%. Also, the concentration at half-maximal activity (AC50) under setting [2] was 18.4 µM [falling, single point]. Under setting [1], the AC50 is 16.4 µM [falling, partial curve]. On to `Cc1ccc(CNC(=O)CCC(=O)Nc2nnc(C(C)C)s2)cc1`, for which the cell number change is 2.45%.

Take `CCN(CC)CC(C)(C)COC(=O)c1oc2ccccc2c1C`: the cell number change is -7.9%. As to `CS(=O)(=O)Nc1cccc(C2=NN(C(=O)CCC(=O)O)C(c3cccs3)C2)c1` (stereo unspecified), the cell number change was 26.4%. Also, the AC50 under setting [1] was 8.2 µM [rising, partial curve, poor fit]. Regarding `CC1(C)CC(=O)C(C=Nc2ccc(C(=O)c3ccccc3)cc2N=CC2=C(O)CC(C)(C)CC2=O)=C(O)C1`, the cell number change was found to be 87.3%.

Regarding `Cc1cc(=O)oc(C)c1C(=O)NCC(C)C`, the concentration at half-maximal activity (AC50) under setting [2] is 0.00461 µM [rising, full curve, poor fit]. In the case of `COc1ccc(CNC(=O)COc2cc3c(c4oc(=O)cc(C)c24)CCC(C)(C)O3)cc1`, the cell number change is -23.6%. For the same compound, under setting [1], the concentration at half-maximal activity (AC50) was 0.731 µM [falling, partial curve, poor fit].

On to `CC1Cc2cc(/C(O)=C3/C(=O)C(=O)N(CCCn4ccnc4)C3c3ccc(Br)cc3)ccc2O1` (stereo unspecified), for which the cell number change is -3.44%. `COC(=O)c1ccccc1NC(=O)Nc1c(C)n(C)n(-c2ccccc2)c1=O`: the cell number change is 5.41%. Further, under setting [1], the half-maximal activity concentration (AC50) was 5.17 µM [rising, single point]. Turning to `COc1ccc(CCN(C)C(=O)c2cnc(C)cn2)cc1OC`, the cell number change was -11.4%. For the same compound, the half-maximal activity concentration (AC50) under setting [1] was 0.411 µM [rising, full curve]. Consider `O=C(Nc1cc(Cl)ccc1O)c1cc(-c2ccco2)on1`, for which the cell number change is 10%. Besides, under setting [1], the AC50 was 1.16 µM [rising, single point].

As to `Cc1ccc(NC(=O)C2CCN(c3cnccn3)CC2)cc1`, the cell number change turned out to be 23.2%. In addition, the concentration at half-maximal activity (AC50) under setting [1] is 29.1 µM [rising, single point]. As for `CCCCN(C(=O)/C=C/c1ccco1)c1c(N)n(CCC)c(=O)[nH]c1=O`, the cell number change was -64%. For the same compound, the concentration at half-maximal activity (AC50) under setting [2] is 29.1 µM [falling, single point]. As to `CCCCn1cnc2cc(C)c(C)cc21`, the cell number change is -23.6%. Take `COc1ccc(C2/C(=C(/O)c3ccc(Br)cc3)C(=O)C(=O)N2C)cc1OC` (stereo unspecified): the cell number change was -4.99%. Besides, the AC50 under setting [1] is 29.1 µM [rising, single point]. Consider `N#Cc1ccc(S(=O)(=O)N2CCN(C(=O)C3CC(=O)N(c4ccc5c(c4)OCCO5)C3)CC2)cc1` (stereo unspecified), for which the cell number change was -5.65%. In addition, under setting [1], the AC50 was 4.61 µM [falling, full curve, poor fit]. `O=C(O)c1ccc(CSc2nnc(-c3ccco3)o2)cc1`: the half-maximal activity concentration (AC50) under setting [1] is 0.326 µM [falling, partial curve]. Regarding `Cc1ccc(NS(=O)(=O)c2cccc(C(=O)N/N=C/c3ccc4c(c3)OCCO4)c2)c(C)c1`, the AC50 is 6.51 µM [falling, single point] under setting [2] and 0.13 µM [falling, full curve, poor fit] under setting [1]. Consider `CCCOc1ccc(C(CC(=O)O)NC(=O)c2sc3ccccc3c2Cl)cc1` (stereo unspecified), for which the cell number change was -22.3%. Further, under setting [1], the half-maximal activity concentration (AC50) was 0.146 µM [falling, full curve, poor fit]. Consider `COC(=O)Nc1ccc(OC)c(OC)c1`, for which the cell number change is -4.34%. The AC50 under setting [1] is 0.231 µM [falling, full curve, poor fit].

As to `CCOC(=O)CC1=C(C(=O)OCC)C(c2ccc(C)o2)C(C#N)=C(N)O1` (stereo unspecified), the cell number change worked out at 101%. Further, the half-maximal activity concentration (AC50) under setting [2] is 23.1 µM [rising, single point]. In addition, the AC50 under setting [1] is 6.51 µM [rising, single point]. For `CN(Cc1ccccc1)C(=O)C1CCCN1S(=O)(=O)c1ccc(Cl)cc1` (stereo unspecified), the cell number change is -22.2%. The AC50 under setting [1] is 10.3 µM [falling, partial curve]. Take `CC(=O)Nc1ccc(S(=O)(=O)NCCC(=O)N2CCc3ccccc32)cc1`: the AC50 under setting [1] was 11.6 µM [rising, single point].

Turning to `CO[C@H]1C=CO[C@@]2(C)Oc3c(C)c(O)c4c(O)c(c5c(nc6cc(C)ccn65)c4c3C2=O)NC(=O)C(C)=CC=C[C@H](C)[C@H](O)[C@@H](C)[C@@H](O)[C@@H](C)[C@H](OC(C)=O)[C@@H]1C`, the cell number change was -4.37%. Moreover, the concentration at half-maximal activity (AC50) under setting [2] is 1.84 µM [falling, partial curve, poor fit]. For the same compound, under setting [1], the AC50 is 1.84 µM [falling, partial curve, poor fit]. In the case of `COc1ccccc1CNC(=O)COn1nnc2ccc(S(=O)(=O)N3CCOCC3)cc21`, the cell number change is 47.5%. Further, the AC50 under setting [2] is 10.3 µM [rising, partial curve]. With `CCN(CC(=O)NCc1cccs1)c1nnnn1-c1ccccc1`, under setting [1], the AC50 was 25.9 µM [falling, partial curve, poor fit]. With `CCC(CC)COC(=O)C1=C(C)NC(=O)NC1c1ccc(N(C)C)cc1` (stereo unspecified), the cell number change was -43.2%. Further, the AC50 under setting [2] was 25.9 µM [falling, single point].

On to `CN(Cc1nccs1)C(=O)C1CCC(=O)N(CCCc2ccccc2)C1` (stereo unspecified), for which the cell number change was 14.8%. Under setting [1], the concentration at half-maximal activity (AC50) is 6.51 µM [falling, single point].

These data come from PubChem BioAssay AID2685 (National Center for Advancing Translational Sciences (NCATS), 2010).
